Experimental data: PubChem BioAssay AID504744 (Drosophila RNAi Screening Center, 2011)

Purpose: 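Uncover factors, including feedback loops, that control dAkt activation in fly cells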 (primary screen)
Cell system: Drosophila Kc167 cells
Reagents: long dsRNA against Drosophila genes, 250 ng dsRNA per well of a 384-well plate
Timing: 3 days of knock-down, then overnight serum-free starvation before stimulation
Conditions: bovine insulin at 387 nM for 10 minutes after 12 h without serum
Measurement: 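In-cell antibody fluorescence for phospho-dAkt in each well over DNA-dye signal, with log2 residuals expressed as z-scores adjusted for cell count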
Rule for the call: 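Hit in the insulin screen when the two-replicate mean z-score is more extreme than plus or minus 2.5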
The screen tested about 23,000 reagents; below is an unselected part of those that have a named target and a result. Of all reagents, 98 (0.43%) were called active. 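Only hit calls are given; the phospho-dAkt signals, z-scores and hit direction were not deposited.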 Names joined by + are all predicted targets of the reagent.

| Gene | amplicon | Outcome |
| --- | --- | --- |
| Uba4 | DRSC02194 | inactive |
| CG9970 | DRSC08644 | inactive |
| CG9014 | DRSC01979 | inactive |
| Cpr78Cc | DRSC11846 | inactive |
| CG15539 | DRSC15075 | inactive |
| skl | DRSC10050 | inactive |
| CG12784 | DRSC14539 | inactive |
| CG12948 | DRSC14576 | inactive |
| CG42237 | DRSC19891 | inactive |
| CG1309 | DRSC08302 | inactive |
| Cad96Cb | DRSC14243 | inactive |
| Cad96Cb | DRSC14665 | inactive |
| SPoCk | DRSC11675 | inactive |
| SPoCk | DRSC11706 | inactive |
| SPoCk | DRSC11844 | inactive |
| SPoCk | DRSC11845 | inactive |
| Dd | DRSC20539 | inactive |
| Tsp42Er | DRSC06183 | inactive |
| KaiR1D | DRSC15516 | inactive |
| CG31093 | DRSC15689 | inactive |
| CG15468 | DRSC18051 | inactive |
| vrs | DRSC15832 | inactive |
| CG30479 | DRSC06735 | inactive |
| VhaPPA1-1 | DRSC16170 | inactive |
| Trf4-2 | DRSC15237 | inactive |
| ddbt | DRSC07869 | inactive |
| tok | DRSC17087 | inactive |
| CG1236 | DRSC12203 | inactive |
| spri | DRSC17846 | inactive |
| spri | DRSC17984 | inactive |
| spri | DRSC17985 | inactive |
| spri | DRSC17986 | inactive |
| spri | DRSC17988 | inactive |
| spri | DRSC17989 | inactive |
| spri | DRSC22927 | inactive |
| CG32755 | DRSC18397 | inactive |
| CG5254 | DRSC18611 | inactive |
| Gip | DRSC18667 | inactive |
| CG10344 | DRSC04066 | inactive |
| CG12134 | DRSC06109 | inactive |
| CG3829 | DRSC04423 | inactive |
| CG32301 | DRSC08613 | inactive |
| Cpes | DRSC04475 | inactive |
| mr | DRSC04332 | inactive |
| mr | DRSC22856 | inactive |
| IPIP | DRSC02164 | inactive |
| CG8112 | DRSC16377 | inactive |
| Coq4 + Gorab + frc | DRSC10383 | inactive |
| CG1806 | DRSC19787 | inactive |
| CG12728 | DRSC17883 | inactive |
| E23 | DRSC00425 | inactive |
| E23 | DRSC00593 | inactive |
| CG9876 | DRSC04586 | inactive |
| CG5886 | DRSC15908 | inactive |
| CG12662 | DRSC17865 | inactive |
| CG11249 | DRSC11645 | inactive |
| CG4360 | DRSC15566 | inactive |
| CG14658 | DRSC12244 | inactive |
| b6 | DRSC18740 | inactive |
| CkIIalpha-i1 | DRSC11115 | inactive |
| CG14712 | DRSC14935 | inactive |
| Sp7 | DRSC15461 | inactive |
| Cpr65Av | DRSC09727 | inactive |
| CG15705 | DRSC06576 | inactive |
| CG18528 | DRSC15340 | inactive |
| CG40583 (retired record) | DRSC20938 | inactive |
| CG7950 + Rpp14a | DRSC16353 | inactive |
| Tdg | DRSC17119 | inactive |
| Tdg | DRSC17169 | inactive |
| anne | DRSC17103 | inactive |
| CG32681 | DRSC17646 | inactive |
| CG34227 | DRSC06788 | inactive |
| CG34227 | DRSC07034 | inactive |
| CG7408 | DRSC10841 | inactive |
| Ilp8 | DRSC10076 | inactive |
| CG33695 + cana | DRSC01163 | inactive |
| CG33695 + cana | DRSC03503 | inactive |
| dimm | DRSC03100 | inactive |
| CG5024 | DRSC15698 | inactive |
| CG1273 | DRSC08291 | inactive |
| CG15550 | DRSC15088 | inactive |
| CG6283 | DRSC16009 | inactive |
| CG5808 | DRSC14124 | inactive |
| RpS12 | DRSC11270 | inactive |
| CG31055 | DRSC13832 | inactive |
| Tdh | DRSC11788 | inactive |
| CG11619 | DRSC09849 | inactive |
| trbl | DRSC11901 | inactive |
| slp1 | DRSC00835 | inactive |
| TTLL1A | DRSC20121 | inactive |
| CG9021 | DRSC03128 | inactive |
| hll | DRSC01944 | inactive |
| CG30158 | DRSC04956 | inactive |
| CG30158 | DRSC04974 | inactive |
| CG30158 | DRSC04975 | inactive |
| CG30158 | DRSC05012 | inactive |
| CG17574 | DRSC06681 | inactive |
| CG11474 | DRSC04112 | inactive |
| Kua | DRSC02100 | inactive |
| CG6813 | DRSC16122 | inactive |
| Obp93a | DRSC15220 | inactive |
| CG7506 | DRSC10860 | inactive |
| LysS | DRSC08677 | inactive |
| CG8677 | DRSC03107 | inactive |
| Pvf2 | DRSC00968 | inactive |
| Pvf2 | DRSC02283 | inactive |
| CG7135 | DRSC20026 | inactive |
| Got1 | DRSC07177 | inactive |
| mfr | DRSC10543 | inactive |
| Spx | DRSC18720 | inactive |
| regucalcin | DRSC18908 | inactive |
| regucalcin | DRSC20366 | inactive |
| CG12289 | DRSC09874 | inactive |
| Psf2 | DRSC00516 | inactive |
| nbs | DRSC11373 | inactive |
| lectin-33A | DRSC02529 | inactive |
| lectin-33A | DRSC22116 | inactive |
| CG9733 | DRSC16549 | inactive |
| Dlip1 | DRSC18460 | inactive |
| rut | DRSC20367 | inactive |
| l(2)03659 | DRSC07269 | inactive |
| l(2)03659 | DRSC07638 | inactive |
| CG5391 | DRSC15790 | inactive |
| CG12730 | DRSC17885 | inactive |
| C901 | DRSC19351 | inactive |
| CG10638 | DRSC09762 | inactive |
| Cep135 | DRSC09345 | inactive |
| Cep135 | DRSC10244 | inactive |
| rnh1 | DRSC07673 | inactive |
| Piezo | DRSC03092 | inactive |
| CG13724 | DRSC10053 | inactive |
| gnu | DRSC10497 | inactive |
| CG42365 | DRSC04266 | inactive |
| rad50 | DRSC04523 | inactive |
| CG7691 | DRSC16287 | inactive |
| CG33177 | DRSC19949 | inactive |
| CG14331 | DRSC14810 | inactive |
| CG7694 | DRSC16288 | inactive |
| Srlp | DRSC15890 | inactive |
| fuss | DRSC17200 | inactive |
| fuss | DRSC21452 | inactive |
| CG3918 | DRSC18331 | inactive |
| TyrRII | DRSC15150 | inactive |
| Fcp1 | DRSC04121 | inactive |
| CG3323 | DRSC18303 | inactive |
| CG31697 | DRSC22273 | inactive |
| CG11044 | DRSC06026 | inactive |
| mei-38 | DRSC18564 | inactive |
| CG6928 | DRSC10749 | inactive |
| udt | DRSC14214 | inactive |
| CG15800 | DRSC04271 | inactive |
| Mon1 | DRSC00336 | inactive |
| CG3386 | DRSC08566 | inactive |
| Ugt303B1 | DRSC15141 | inactive |
| U4-U6-60K | DRSC10624 | inactive |
| CG8176 | DRSC16394 | inactive |
| CG7409 | DRSC10842 | inactive |
| CG10300 | DRSC14225 | inactive |
| CG34357 | DRSC12211 | inactive |
| CG34357 | DRSC12238 | inactive |
| CG34357 | DRSC12334 | inactive |
| Pp1alpha-96A | DRSC16795 | inactive |
| CG8837 | DRSC00711 | inactive |
| Sms | DRSC10408 | inactive |
| CG10376 | DRSC02049 | inactive |
| Cpr11A | DRSC19861 | inactive |
| GstE10 | DRSC06671 | inactive |
| Cpr31A | DRSC02779 | inactive |
| CG31205 | DRSC13438 | active |
| CG14787 | DRSC18606 | inactive |
| CG13204 | DRSC06328 | inactive |
| TotE | DRSC21355 | inactive |
| CG33333 | DRSC13233 | inactive |
| CG42380 + CG42379 + PIG-M + 1 more | DRSC03884 | inactive |
| CG42380 + CG42379 + PIG-M + 1 more | DRSC04580 | inactive |
| Rbsn-5 | DRSC03094 | inactive |
| VhaM9.7-b | DRSC11841 | inactive |
| CG32132 (retired record) | DRSC22437 | inactive |
| Epg5 | DRSC14778 | inactive |
| CG3448 | DRSC10368 | inactive |
| stc | DRSC03620 | inactive |
| fs(1)K10 | DRSC18775 | inactive |
| mei-9 | DRSC18792 | inactive |
| Cep97 | DRSC00637 | inactive |
| rgn | DRSC11609 | inactive |
| CG7730 | DRSC10909 | inactive |
| CG4950 | DRSC10463 | inactive |
| p130CAS | DRSC07862 | inactive |
| p130CAS | DRSC08257 | inactive |
| ksh | DRSC19554 | inactive |
| CG15452 | DRSC20523 | inactive |
| qjt | DRSC10060 | inactive |
| Dscam3 | DRSC14525 | inactive |
| Dscam3 | DRSC16376 | inactive |
| CG34426 | DRSC09977 | inactive |
| Nep1 | DRSC18388 | inactive |
| Nep1 | DRSC18389 | inactive |
| CG17141 | DRSC15178 | inactive |
| Ugt36A1 + CG15418 | DRSC00432 | inactive |
| vir-1 | DRSC02501 | inactive |
| vir-1 | DRSC02863 | inactive |

Entries above called active (1):
| Gene | amplicon | Outcome |
| --- | --- | --- |
| CG31205 | DRSC13438 | active |
